From the supplement of paper PMC10849652
The other results are listed elsewhere or left out.

Amino acid sequences for entries named in this document (tags omitted). A change or cut given only in a name is not applied to a line headed by its entry.
UniProt O60547: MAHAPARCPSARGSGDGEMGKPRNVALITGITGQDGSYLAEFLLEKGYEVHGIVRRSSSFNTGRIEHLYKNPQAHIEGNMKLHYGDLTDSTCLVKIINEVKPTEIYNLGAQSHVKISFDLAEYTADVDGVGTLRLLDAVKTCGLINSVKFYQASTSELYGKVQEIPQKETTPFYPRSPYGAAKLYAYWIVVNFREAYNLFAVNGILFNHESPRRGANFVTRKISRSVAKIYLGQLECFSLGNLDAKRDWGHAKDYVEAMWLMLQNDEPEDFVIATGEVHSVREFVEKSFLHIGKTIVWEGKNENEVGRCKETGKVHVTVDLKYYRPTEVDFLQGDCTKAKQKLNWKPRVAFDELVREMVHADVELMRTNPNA
UniProt Q9H4G4: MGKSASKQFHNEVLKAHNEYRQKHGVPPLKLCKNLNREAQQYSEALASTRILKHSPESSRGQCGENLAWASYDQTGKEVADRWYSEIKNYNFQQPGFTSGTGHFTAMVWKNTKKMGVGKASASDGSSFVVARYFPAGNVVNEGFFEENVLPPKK
UniProt Q9UBQ7: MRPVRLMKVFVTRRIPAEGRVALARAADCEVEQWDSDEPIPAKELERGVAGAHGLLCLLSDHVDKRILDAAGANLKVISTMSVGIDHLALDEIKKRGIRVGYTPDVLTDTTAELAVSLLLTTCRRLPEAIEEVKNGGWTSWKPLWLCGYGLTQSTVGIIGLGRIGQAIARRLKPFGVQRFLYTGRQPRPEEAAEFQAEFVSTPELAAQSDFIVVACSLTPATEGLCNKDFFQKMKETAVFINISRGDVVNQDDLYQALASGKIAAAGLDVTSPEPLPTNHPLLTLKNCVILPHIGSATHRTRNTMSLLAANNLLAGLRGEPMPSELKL
UniProt P13224: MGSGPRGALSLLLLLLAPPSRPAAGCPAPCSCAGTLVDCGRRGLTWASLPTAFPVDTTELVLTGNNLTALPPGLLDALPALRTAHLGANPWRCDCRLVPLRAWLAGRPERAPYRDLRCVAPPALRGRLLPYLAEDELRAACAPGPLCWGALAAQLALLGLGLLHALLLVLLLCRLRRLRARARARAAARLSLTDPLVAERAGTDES
UniProt P21695: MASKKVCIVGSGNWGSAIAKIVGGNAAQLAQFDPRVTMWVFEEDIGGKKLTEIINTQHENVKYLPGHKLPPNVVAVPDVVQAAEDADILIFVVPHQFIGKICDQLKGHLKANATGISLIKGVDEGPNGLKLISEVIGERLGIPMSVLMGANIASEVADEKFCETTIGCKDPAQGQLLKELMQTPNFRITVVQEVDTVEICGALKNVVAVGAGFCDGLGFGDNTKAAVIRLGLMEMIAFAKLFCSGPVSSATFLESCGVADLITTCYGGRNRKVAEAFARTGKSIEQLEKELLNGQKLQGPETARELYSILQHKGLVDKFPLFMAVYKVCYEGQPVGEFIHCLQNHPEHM
UniProt P28799: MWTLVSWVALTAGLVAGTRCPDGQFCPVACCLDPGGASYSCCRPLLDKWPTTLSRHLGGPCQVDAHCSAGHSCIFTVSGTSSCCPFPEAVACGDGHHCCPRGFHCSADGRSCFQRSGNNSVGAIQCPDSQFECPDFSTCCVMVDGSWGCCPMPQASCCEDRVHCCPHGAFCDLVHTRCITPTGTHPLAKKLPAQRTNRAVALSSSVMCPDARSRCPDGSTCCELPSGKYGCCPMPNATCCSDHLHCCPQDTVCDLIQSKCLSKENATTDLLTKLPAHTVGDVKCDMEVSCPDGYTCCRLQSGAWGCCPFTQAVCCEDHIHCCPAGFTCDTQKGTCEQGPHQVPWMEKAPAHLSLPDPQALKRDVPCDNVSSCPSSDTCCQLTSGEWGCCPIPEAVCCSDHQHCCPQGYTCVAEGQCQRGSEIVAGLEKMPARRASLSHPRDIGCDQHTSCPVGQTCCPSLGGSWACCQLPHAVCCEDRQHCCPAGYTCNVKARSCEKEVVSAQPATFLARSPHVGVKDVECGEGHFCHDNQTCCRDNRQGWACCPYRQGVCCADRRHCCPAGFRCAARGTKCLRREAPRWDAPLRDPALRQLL
UniProt P62879, whole entry, looked up: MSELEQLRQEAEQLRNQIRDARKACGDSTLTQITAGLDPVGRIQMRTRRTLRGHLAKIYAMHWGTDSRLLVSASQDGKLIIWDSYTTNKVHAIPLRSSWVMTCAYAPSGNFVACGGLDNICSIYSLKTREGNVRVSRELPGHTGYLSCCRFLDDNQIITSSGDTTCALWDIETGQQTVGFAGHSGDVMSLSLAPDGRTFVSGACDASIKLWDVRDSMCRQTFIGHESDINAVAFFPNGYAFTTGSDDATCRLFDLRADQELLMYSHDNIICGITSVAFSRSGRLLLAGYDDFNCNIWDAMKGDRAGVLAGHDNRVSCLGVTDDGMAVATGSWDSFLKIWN
UniProt Q68CQ7: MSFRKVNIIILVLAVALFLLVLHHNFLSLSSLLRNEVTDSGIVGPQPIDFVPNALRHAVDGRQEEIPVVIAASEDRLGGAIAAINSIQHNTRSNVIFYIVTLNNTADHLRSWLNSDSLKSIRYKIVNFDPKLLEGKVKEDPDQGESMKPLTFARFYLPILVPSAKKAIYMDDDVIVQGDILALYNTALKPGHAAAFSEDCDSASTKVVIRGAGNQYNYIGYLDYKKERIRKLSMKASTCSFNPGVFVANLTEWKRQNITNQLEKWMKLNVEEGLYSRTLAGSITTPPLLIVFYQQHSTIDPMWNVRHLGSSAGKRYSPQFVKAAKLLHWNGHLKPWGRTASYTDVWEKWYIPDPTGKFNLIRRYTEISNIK
UniProt Q86SX6: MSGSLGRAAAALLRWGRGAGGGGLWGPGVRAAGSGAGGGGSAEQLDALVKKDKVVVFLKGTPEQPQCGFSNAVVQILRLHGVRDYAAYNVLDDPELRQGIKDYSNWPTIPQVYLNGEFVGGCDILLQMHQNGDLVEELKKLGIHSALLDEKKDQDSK

Assays:
Assay in all cases: log2 fold change, soluble protein after heating vs DMSO (PISA); higher = thermal stabilisation; K562 cells, 10 uM, 30 min; active = over 0.2 and 3.5 SD of the protein, either way, in both replicates (recomputed)
bafetinib = compound: Cc1ccc(NC(=O)c2ccc(CN3CC[C@H](N(C)C)C3)c(C(F)(F)F)c2)cc1Nc1nccc(-c2cncnc2)n1 [bafetinib]
Summary of the method: (§1)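 K562 cells at 2×10^6 cells/mL were exposed to 10 μM compound for 30 min, then aliquots were heated for 3 min across 48°C-58°C, pooled, and extracted in PBS containing 0.5% NP-40 at 4°C. The supernatant after 21,000xg for 90 min was taken as soluble protein and measured by TMTpro 16plex LC-MS/MS with channel sums equalised. Thermal stability is reported relative to control samples, with values from duplicates. Fold changes are given on a log2 scale.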

[1] = compound: Cc1cccc(CC(=O)N2CCc3c2ccc(-c2cn(C)c4ncnc(N)c24)c3F)n1
Summary of the method: as §1

nilotinib = compound: Cc1cn(-c2cc(NC(=O)c3ccc(C)c(Nc4nccc(-c5cccnc5)n4)c3)cc(C(F)(F)F)c2)cn1 [nilotinib]
Summary of the method: as §1

[2] = compound: Cc1nc(Nc2n[nH]c3c2CN(C(=O)N[C@H](CN(C)C)c2ccccc2)C3(C)C)c2sccc2n1
Summary of the method: as §1

dasatinib = compound: Cc1nc(Nc2ncc(C(=O)Nc3c(C)cccc3Cl)s2)cc(N2CCN(CCO)CC2)n1 [dasatinib]
Summary of the method: as §1

[3] = compound: Cc1ncc(-c2ccnc(Nc3ccc(S(C)(=O)=O)cc3)n2)n1C(C)C
Summary of the method: as §1

[4] = compound: Cn1cc(-c2ccc3c(c2)CCN3C(=O)Cc2cccc(C(F)(F)F)c2)c2c(N)ncnc21
Summary of the method: as §1

[5] = compound: NC(=O)Nc1cc(-c2cccc(F)c2)sc1C(=O)N[C@H]1CCCNC1
Summary of the method: as §1

[6] = compound: NCC(=O)Nc1ccc(-n2nc(C(F)(F)F)cc2-c2ccc3c(ccc4ccccc43)c2)cc1
Summary of the method: as §1

entinostat = compound: Nc1ccccc1NC(=O)c1ccc(CNC(=O)OCc2cccnc2)cc1 [entinostat]
Summary of the method: as §1

vorinostat = compound: O=C(CCCCCCC(=O)Nc1ccccc1)NO [vorinostat]
Summary of the method: as §1

citarinostat = compound: O=C(CCCCCCNC(=O)c1cnc(N(c2ccccc2)c2ccccc2Cl)nc1)NO [citarinostat]
Summary of the method: as §1

[7] = compound: O=C1NC(=O)C(c2cnc3ccccn23)=C1c1cn2c3c(cc(F)cc13)CN(C(=O)N1CCCCC1)CC2
Summary of the method: as §1

[8] = compound: c1cc(OCCN2CCCCC2)cc(-c2n[nH]c3ccc(-c4nnc[nH]4)cc23)c1
Summary of the method: as §1

mubritinib = compound: FC(F)(F)c1ccc(/C=C/c2nc(COc3ccc(CCCCn4ccnn4)cc3)co2)cc1 [mubritinib]
Summary of the method: as §1

[9] = compound: NC(=O)c1cnc(N[C@@H]2CCCC[C@@H]2N)nc1Nc1cccc(-n2nccn2)c1
Summary of the method: as §1

[10] = compound: NC1(c2ccc(-c3nc4ccn5c(=O)[nH]nc5c4cc3-c3ccccc3)cc2)CCC1
Summary of the method: as §1

silmitasertib = compound: O=C(O)c1ccc2c(c1)nc(Nc1cccc(Cl)c1)c1ccncc12 [silmitasertib]
Summary of the method: as §1

[11] = compound: Cn1cc(-c2ccc3nnc(C(F)(F)c4ccc5ncccc5c4)n3n2)cn1
Summary of the method: as §1

tipifarnib = compound: Cn1cncc1[C@@](N)(c1ccc(Cl)cc1)c1ccc2c(c1)c(-c1cccc(Cl)c1)cc(=O)n2C [tipifarnib]
Summary of the method: as §1

Measured: log2 fold change

GOLIM4 (UniProt F8W785)
inactive: bafetinib -0.082 | [1] 0.004 | nilotinib 0.074 | [2] -0.101 | dasatinib 0.092 | [3] 0.042 | [4] -0.016 | [5] -0.077 | [6] 0.024 | entinostat 0.013 | vorinostat -0.119 | citarinostat -0.01 | [7] -0.051 | [8] -0.01

GPAA1 (UniProt E9PLG8)
inactive: bafetinib -0.001 | [1] -0.049 | nilotinib -0.159 | [2] -0.167 | dasatinib 0.039 | [3] 0.033 | [4] -0.093 | mubritinib 0.082 | [9] -0.016 | [10] -0.229 | vorinostat -0.125 | citarinostat 0.119 | silmitasertib 0.061 | [8] -0.084

GMDS (UniProt O60547)
inactive: bafetinib -0.043 | [1] -0.025 | nilotinib -0.014 | [2] 0.032 | dasatinib 0.021 | [3] -0.013 | [4] 0.056 | [11] 0.012 | tipifarnib -0.019 | mubritinib 0.018 | [5] 0.007 | [9] -0.011 | [10] -0.017 | [6] 0.038 | entinostat -0.035 | vorinostat -0.002 | citarinostat 0.012 | silmitasertib 0.019 | [7] -0.027 | [8] -0.019

GLIPR2 (UniProt Q9H4G4)
inactive: bafetinib -0.101 | [1] -0.024 | dasatinib -0.059 | [4] 0.031 | [11] 0.087 | tipifarnib 0.019 | mubritinib 0.054 | [5] -0.038 | [9] -0.058 | [10] -0.101 | [6] -0.071 | entinostat 0.058 | vorinostat 0.032 | citarinostat -0.029 | silmitasertib 0.112 | [7] -0.017 | [8] -0.037

GRHPR (UniProt Q9UBQ7)
inactive: bafetinib 0 | [1] -0.028 | nilotinib 0.004 | [2] 0.02 | dasatinib -0.055 | [3] -0.021 | [4] 0.064 | [11] -0.006 | tipifarnib -0.01 | mubritinib -0.025 | [5] -0.067 | [9] 0.076 | [10] -0.032 | [6] 0.039 | entinostat -0.039 | vorinostat 0.03 | citarinostat -0.008 | silmitasertib -0.014 | [7] -0.033 | [8] -0.026

GP1BB isoform 2 (UniProt P13224)
inactive: bafetinib -0.044 | [1] 0.023 | nilotinib 0.045 | [2] 0.013 | dasatinib -0.034 | [3] -0.029 | [4] -0.035 | tipifarnib 0.059 | mubritinib 0.045 | [5] -0.042 | [9] 0.005 | [10] -0.016 | [6] -0.005 | entinostat -0.035 | vorinostat -0.03 | citarinostat -0.045 | silmitasertib 0.017 | [7] 0.025 | [8] 0.101

GPD1 (UniProt P21695)
inactive: bafetinib -0.171 | [1] -0.123 | nilotinib -0.104 | [2] 0.054 | dasatinib 0.061 | [3] -0.017 | [4] 0.238 | [11] 0.163 | tipifarnib 0.057 | mubritinib 0.045 | [5] 0.067 | [9] 0 | [10] 0.059 | [6] -0.067 | entinostat -0.068 | vorinostat -0.035 | silmitasertib -0.16 | [7] -0.157

GRN (UniProt P28799)
inactive: bafetinib 0.253 | [1] 0.021 | nilotinib 0.161 | [2] -0.079 | dasatinib 0.136 | [3] -0.04 | [4] 0.003 | [11] -0.064 | tipifarnib 0.02 | mubritinib 0.056 | [5] 0.011 | [9] 0.027 | [10] 0.101 | [6] 0.013 | entinostat -0.05 | vorinostat -0.057 | silmitasertib -0.029 | [7] 0.002

2 records drawn at random from those above, as already listed:
GMDS (UniProt O60547)
inactive: bafetinib -0.043 | [1] -0.025 | nilotinib -0.014 | [2] 0.032 | dasatinib 0.021 | [3] -0.013 | [4] 0.056 | [11] 0.012 | tipifarnib -0.019 | mubritinib 0.018 | [5] 0.007 | [9] -0.011 | [10] -0.017 | [6] 0.038 | entinostat -0.035 | vorinostat -0.002 | citarinostat 0.012 | silmitasertib 0.019 | [7] -0.027 | [8] -0.019

GRN (UniProt P28799)
inactive: bafetinib 0.253 | [1] 0.021 | nilotinib 0.161 | [2] -0.079 | dasatinib 0.136 | [3] -0.04 | [4] 0.003 | [11] -0.064 | tipifarnib 0.02 | mubritinib 0.056 | [5] 0.011 | [9] 0.027 | [10] 0.101 | [6] 0.013 | entinostat -0.05 | vorinostat -0.057 | silmitasertib -0.029 | [7] 0.002

The listing continues.

GNB2 (UniProt P62879)
inactive: bafetinib 0.12 | [1] -0.002 | nilotinib 0.077 | [2] -0.018 | dasatinib 0.057 | [3] -0.012 | [4] 0.028 | [11] -0.032 | tipifarnib 0.003 | mubritinib -0.028 | [5] -0.073 | [9] -0.012 | [10] 0.022 | [6] -0.014 | entinostat -0.037 | vorinostat -0.047 | citarinostat -0.01 | silmitasertib 0.028 | [7] -0.075 | [8] -0.049

GLT8D1 (UniProt Q68CQ7)
inactive: [1] 0.247 | nilotinib 0.14 | [2] -0.005 | dasatinib -0.077 | [3] -0.014 | [9] 0.01 | vorinostat -0.267 | citarinostat -0.142 | [8] 0.084

GLRX5 (UniProt Q86SX6)
inactive: bafetinib -0.152 | nilotinib 0.026 | [2] 0.002 | dasatinib -0.036 | [3] -0.026 | [4] 0.078 | [11] 0.149 | tipifarnib -0.073 | mubritinib -0.032 | [5] -0.05 | [9] 0.005 | [10] 0.042 | [6] 0.083 | entinostat 0.015 | citarinostat -0.022 | silmitasertib -0.03 | [7] -0.217 | [8] -0.018
